Laboratory results as given in US20240342071A1, “HEXAPEPTIDE,COSMETIC COMPOSITION OR PHARMACEUTICAL COMPOSITION CONTAINING SAME, AND USE OF HEXAPEPTIDE” (SHENZHEN WINKEY TECHNOLOGY CO., LTD, priority 2021, published 2024).
Not every detail of the peptide structures is certain; ends, links or a residue may be inferred.

Tests used:
skin = assay: Damaged skin barrier repair experiment: C-Cube imaging, erythema after SDS stimulation; type: in vivo, human volunteers; conditions: 50 ppm
HaCaT cells = assay: Cell viability assay (MTT) on HaCaT cells; type: cell-based, Human; conditions: 100 ppm, 72 h
Description: Phosphate-buffered saline (PBS) (Gibco), thiazolyl blue (MTT) (Sigma), dimethyl sulfoxide (DMSO) (Sigma), a high glucose culture medium (DMEM) (Gibco), and fetal bovine serum (Gibco).
Human keratinocytes (HaCaT) were purchased from the Kunming Cell Bank of China Center for Type Culture Collection under the Chinese Academy of Sciences.
The peptide Ac-Phe-Phe-Trp-Phe-His-Val-NH2 (hereinafter referred to as the reference peptide) at a test concentration of 1 ppm, 10 ppm, 50 ppm, and 100 ppm respectively; • the peptide (5) at a test concentration of 1 ppm, 10 ppm, 50 ppm, and 100 ppm, respectively; • the peptide (11) at a test concentration of 1 ppm, 10 ppm, 50 ppm, and 100 ppm, respectively; • the peptide (17) at a test concentration of 1 ppm, 10 ppm, 50 ppm, and 100 ppm, respectively. Control group: • PBS blank control.
The frozen HaCaT cells were cultured and passaged at a ratio of 1:2 to about the 5th generation, and the cells in better growth were selected as experiment subjects. […]
Then 22 μL 5 mg/ml MTT was added to each well and the incubation was continued in the 5% CO2 incubator at 37° C. for 4 h. […] After 5 min, the microplate reader was used to read the reference OD values at 490 nm and 630 nm wavelengths.
The MTT assay is a method of detecting cell survival and growth. […] The measured OD values are directly proportional to cell viability.

skin barrier = assay: Damaged skin barrier repair experiment: TEWL after SDS stimulation; type: in vivo, human volunteers
TNF-α = assay: Anti-inflammatory cell assay: TNF-α ELISA in LPS-stimulated RAW 264.7 cells; type: cell-based, Mouse; conditions: 200 ng/mL LPS
Protocol: (§1) Fetal bovine serum, DMEM culture medium, penicillin, streptomycin, an IL-6 ELISA kit and a TNF-α ELISA kit.
(§2) Mouse monocyte macrophages (RAW 264.7 cells).
(§3) 100 ppm of the reference peptide, 100 ppm of the peptide (5), 100 ppm of the peptide (11), and 100 ppm of the peptide (17); the peptides were dissolved with a PBS solution, respectively.
(§4) The frozen RAW 264.7 cells were cultured and passaged at a ratio of 1:2 to about the 5th generation, and the cells in better growth were selected as experiment subjects.
(§5) A cell suspension was diluted properly and inoculated on a 6-well plate at 100,000 cells/well. When the cells were about 80% confluent, an LPS-stimulated inflammation model was established. A blank control group (control), a LPS group, a dexamethasone group (DXM), and polypeptide groups were set. The blank control group was supplemented with the culture medium to 1000 μL; in the LPS group, 200 ng/mL LPS was added, and supplemented with the culture medium to 1000 μL; in the dexamethasone group, 200 ng/mL LPS and 50 ng/ml dexamethasone were added, and supplemented with the culture medium to 1000 μL; in the polypeptide groups, 200 ng/mL LPS and a polypeptide were added, and supplemented with culture medium to 1000 μL (the final test concentration of the polypeptide was 100 ppm). The above groups were further incubated in a 5% CO2 incubator at 37° C. for 48 h. The solutions were centrifuged at 3000 rpm for 15 min, in each of which a cell supernatant was collected to obtain a sample liquid. Operations were performed according to the instructions of the IL-6 and TNF-α ELISA kits.
Inflammatory factors such as TNF-α and IL-6 can cause the body's immune overresponse, leading to skin ulcers, redness and other problems. Therefore, inhibiting inflammatory factors such as TNF-α and IL-6 secreted by monocytes in the skin can achieve anti-inflammatory and repairing effects. An inflammation model was established by stimulating RAW 264.7 cells with 200 ng/mL LPS to investigate the anti-inflammatory and repairing effects of the peptides of the present invention.

IL-6 = assay: Anti-inflammatory cell assay: IL-6 ELISA in LPS-stimulated RAW 264.7 cells; type: cell-based, Mouse; conditions: 100 ppm, 200 ng/mL LPS, RAW 264.7, 48 h, vs LPS alone
Protocol: as §1, §2, §3, §4
as §5, with “The solutions were centrifuged at 3000 rpm for 15 min, in each of which a cell supernatant was collected to obtain a sample liquid. Operations were performed according to the instructions of the IL-6 and TNF-α ELISA kits.” left out

Substance: Ac-FFWFKV-NH2 [peptide (5), Ac-Phe-Phe-Trp-Phe-Lys-Val-NH2]
- erythema area (skin; 3rd day after SDS stimulation, compared with the SDS group): significantly improve
- improvement value of the erythema index compared with the reference peptide (skin; 3 days after SDS stimulation): better than that of the reference peptide
- erythema index (skin; after SDS stimulation, compared with the SDS group): significantly reduced
- proliferation effects on cells (HaCaT cells): significant proliferation effects
- TEWL (skin barrier; 50 ppm in carbomer/arginine solvent, 3rd day after SDS stimulation, compared with the SDS group): significantly reduced
- effect on skin barrier repair compared with the reference peptide (skin barrier; 50 ppm, TEWL after SDS stimulation): better effect on skin barrier repair than the reference peptide
- effect on TNF-α expression compared with the positive drug dexamethasone (TNF-α; 100 ppm peptide vs 50 ng/ml dexamethasone, RAW 264.7): equivalent to that of the positive drug dexamethasone, or having even more excellent effects than dexamethasone
- effect on inhibiting the TNF-α expression, compared among the peptides (TNF-α; 100 ppm, RAW 264.7): stronger effect
- TNF-α expression (TNF-α; 100 ppm, RAW 264.7, 48 h, vs LPS alone): significantly down-regulated
- expression of IL-6 (IL-6): significantly down-regulated
